Results reported in article PMC10543712.
No constants are given. Whether binding was seen depends on the method and setting. In cells and extracts the contact can be indirect. Some entries that bind do so weakly or less than the wild type. Sequences can lack the tags named with a protein.

The chains behind the UniProt entries cited, without tags or fusion partners.
UniProt P63094: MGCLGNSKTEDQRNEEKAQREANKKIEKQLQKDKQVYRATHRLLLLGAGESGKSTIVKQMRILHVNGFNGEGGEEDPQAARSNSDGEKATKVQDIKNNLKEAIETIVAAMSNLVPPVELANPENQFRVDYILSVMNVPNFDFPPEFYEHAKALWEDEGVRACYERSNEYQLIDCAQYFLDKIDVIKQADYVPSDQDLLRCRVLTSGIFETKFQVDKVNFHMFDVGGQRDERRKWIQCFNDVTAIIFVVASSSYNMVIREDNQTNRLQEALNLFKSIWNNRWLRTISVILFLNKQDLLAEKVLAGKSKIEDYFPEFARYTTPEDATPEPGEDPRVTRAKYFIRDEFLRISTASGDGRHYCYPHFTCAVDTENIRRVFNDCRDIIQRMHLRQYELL

Columns and labels:
[1] = target: T1, FLAG-tagged CRY1 (UniProt P97784); assay: co-IP; HA-tagged Gαs and FLAG-tagged CRY1 (or Cry1Δ11) coexpressed in HEK 293T cells; about 1 mg whole cell lysate (150 mM NaCl, 1% NP-40, 2 mM EDTA, 50 mM Tris pH 8.0) with 1 μg HA or FLAG Ab overnight at 4°C, protein G agarose; immunoblot with HA or FLAG Ab
T1 sequence: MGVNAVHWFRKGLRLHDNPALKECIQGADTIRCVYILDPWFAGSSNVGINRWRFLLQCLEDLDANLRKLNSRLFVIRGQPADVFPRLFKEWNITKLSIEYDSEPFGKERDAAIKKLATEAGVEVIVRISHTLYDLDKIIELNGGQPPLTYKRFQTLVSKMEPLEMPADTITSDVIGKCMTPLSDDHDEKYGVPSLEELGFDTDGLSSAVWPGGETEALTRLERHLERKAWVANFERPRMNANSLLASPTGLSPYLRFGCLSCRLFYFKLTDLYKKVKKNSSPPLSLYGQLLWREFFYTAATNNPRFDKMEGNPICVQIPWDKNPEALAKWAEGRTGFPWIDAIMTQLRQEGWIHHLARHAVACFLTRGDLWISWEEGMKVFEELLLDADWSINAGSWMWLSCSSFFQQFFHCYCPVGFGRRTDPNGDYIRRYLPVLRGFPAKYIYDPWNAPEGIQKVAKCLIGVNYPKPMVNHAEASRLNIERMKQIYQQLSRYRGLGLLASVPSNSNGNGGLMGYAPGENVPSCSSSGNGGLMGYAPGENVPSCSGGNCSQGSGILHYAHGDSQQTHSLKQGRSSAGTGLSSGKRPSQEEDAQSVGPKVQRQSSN

[2] = target: HA-tagged Gαs (UniProt P63094); assay: as above

In the case of “HA-tagged Gαs (from UniProt P63094 1-394)”, the binding [1] is reported as “binds”.

B1: FLAG-tagged CRY1 (protein, UniProt P97784 1-606)
chain: MGVNAVHWFRKGLRLHDNPALKECIQGADTIRCVYILDPWFAGSSNVGINRWRFLLQCLEDLDANLRKLNSRLFVIRGQPADVFPRLFKEWNITKLSIEYDSEPFGKERDAAIKKLATEAGVEVIVRISHTLYDLDKIIELNGGQPPLTYKRFQTLVSKMEPLEMPADTITSDVIGKCMTPLSDDHDEKYGVPSLEELGFDTDGLSSAVWPGGETEALTRLERHLERKAWVANFERPRMNANSLLASPTGLSPYLRFGCLSCRLFYFKLTDLYKKVKKNSSPPLSLYGQLLWREFFYTAATNNPRFDKMEGNPICVQIPWDKNPEALAKWAEGRTGFPWIDAIMTQLRQEGWIHHLARHAVACFLTRGDLWISWEEGMKVFEELLLDADWSINAGSWMWLSCSSFFQQFFHCYCPVGFGRRTDPNGDYIRRYLPVLRGFPAKYIYDPWNAPEGIQKVAKCLIGVNYPKPMVNHAEASRLNIERMKQIYQQLSRYRGLGLLASVPSNSNGNGGLMGYAPGENVPSCSSSGNGGLMGYAPGENVPSCSGGNCSQGSGILHYAHGDSQQTHSLKQGRSSAGTGLSSGKRPSQEEDAQSVGPKVQRQSSN
B1 was tested, and the binding [2] was “binds”.
